Drawing on the supplement of paper PMC10849652, this text covers log2 fold change for 8 targets.

Amino acid sequences for entries named in this document (tags omitted). A change or cut given only in a name is not applied to a line headed by its entry.
UniProt Q92889: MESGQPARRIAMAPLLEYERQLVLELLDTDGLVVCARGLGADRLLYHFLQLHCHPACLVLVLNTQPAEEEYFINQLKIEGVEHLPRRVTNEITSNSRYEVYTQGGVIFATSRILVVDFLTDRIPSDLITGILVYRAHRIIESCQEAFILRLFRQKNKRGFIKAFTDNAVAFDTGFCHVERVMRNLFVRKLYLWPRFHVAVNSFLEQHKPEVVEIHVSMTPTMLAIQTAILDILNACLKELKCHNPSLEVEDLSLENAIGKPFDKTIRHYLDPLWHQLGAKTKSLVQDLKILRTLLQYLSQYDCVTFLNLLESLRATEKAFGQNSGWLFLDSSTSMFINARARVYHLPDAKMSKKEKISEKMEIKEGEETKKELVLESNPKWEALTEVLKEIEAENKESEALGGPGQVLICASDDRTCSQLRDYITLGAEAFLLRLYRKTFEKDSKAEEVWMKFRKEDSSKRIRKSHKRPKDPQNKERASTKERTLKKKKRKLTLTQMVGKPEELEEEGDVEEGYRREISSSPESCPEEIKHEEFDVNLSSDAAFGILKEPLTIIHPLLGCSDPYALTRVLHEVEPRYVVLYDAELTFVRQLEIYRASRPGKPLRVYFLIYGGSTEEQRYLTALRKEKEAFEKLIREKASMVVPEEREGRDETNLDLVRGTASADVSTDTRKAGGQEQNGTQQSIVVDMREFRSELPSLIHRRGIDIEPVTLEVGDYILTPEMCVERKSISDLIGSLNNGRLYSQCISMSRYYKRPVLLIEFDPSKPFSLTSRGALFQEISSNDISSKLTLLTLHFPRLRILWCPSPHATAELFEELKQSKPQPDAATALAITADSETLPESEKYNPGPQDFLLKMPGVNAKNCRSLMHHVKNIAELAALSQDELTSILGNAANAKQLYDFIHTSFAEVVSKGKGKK
UniProt Q9GZU8: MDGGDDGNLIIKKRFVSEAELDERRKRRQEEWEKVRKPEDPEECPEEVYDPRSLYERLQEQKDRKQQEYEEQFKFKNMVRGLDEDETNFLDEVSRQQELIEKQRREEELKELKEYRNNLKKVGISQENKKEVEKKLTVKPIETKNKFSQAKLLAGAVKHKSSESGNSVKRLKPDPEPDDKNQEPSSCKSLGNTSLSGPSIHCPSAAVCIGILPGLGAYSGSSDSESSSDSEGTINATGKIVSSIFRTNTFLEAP
UniProt Q9UBC2: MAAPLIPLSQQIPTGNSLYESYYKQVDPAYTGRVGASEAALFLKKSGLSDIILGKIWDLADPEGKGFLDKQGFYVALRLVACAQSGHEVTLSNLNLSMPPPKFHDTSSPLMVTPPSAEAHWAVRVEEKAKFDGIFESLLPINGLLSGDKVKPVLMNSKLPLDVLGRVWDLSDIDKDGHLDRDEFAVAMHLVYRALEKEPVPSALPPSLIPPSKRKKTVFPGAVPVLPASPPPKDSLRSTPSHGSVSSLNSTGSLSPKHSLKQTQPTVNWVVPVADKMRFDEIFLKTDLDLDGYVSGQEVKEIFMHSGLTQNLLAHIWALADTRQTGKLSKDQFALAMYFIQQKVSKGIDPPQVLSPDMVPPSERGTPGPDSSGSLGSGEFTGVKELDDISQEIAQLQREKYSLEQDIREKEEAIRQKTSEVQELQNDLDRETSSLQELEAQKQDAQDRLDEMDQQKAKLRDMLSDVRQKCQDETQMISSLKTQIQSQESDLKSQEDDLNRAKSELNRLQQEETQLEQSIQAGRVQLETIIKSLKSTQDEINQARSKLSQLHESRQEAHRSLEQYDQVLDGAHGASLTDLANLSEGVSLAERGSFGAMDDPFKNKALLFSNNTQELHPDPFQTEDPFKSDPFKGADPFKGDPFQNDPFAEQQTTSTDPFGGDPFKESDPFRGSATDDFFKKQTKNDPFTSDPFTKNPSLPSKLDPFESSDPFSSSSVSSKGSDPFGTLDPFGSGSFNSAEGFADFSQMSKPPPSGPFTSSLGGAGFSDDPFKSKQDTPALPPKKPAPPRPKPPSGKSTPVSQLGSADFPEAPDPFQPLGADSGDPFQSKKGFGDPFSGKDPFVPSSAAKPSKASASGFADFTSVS
UniProt Q8WUF8: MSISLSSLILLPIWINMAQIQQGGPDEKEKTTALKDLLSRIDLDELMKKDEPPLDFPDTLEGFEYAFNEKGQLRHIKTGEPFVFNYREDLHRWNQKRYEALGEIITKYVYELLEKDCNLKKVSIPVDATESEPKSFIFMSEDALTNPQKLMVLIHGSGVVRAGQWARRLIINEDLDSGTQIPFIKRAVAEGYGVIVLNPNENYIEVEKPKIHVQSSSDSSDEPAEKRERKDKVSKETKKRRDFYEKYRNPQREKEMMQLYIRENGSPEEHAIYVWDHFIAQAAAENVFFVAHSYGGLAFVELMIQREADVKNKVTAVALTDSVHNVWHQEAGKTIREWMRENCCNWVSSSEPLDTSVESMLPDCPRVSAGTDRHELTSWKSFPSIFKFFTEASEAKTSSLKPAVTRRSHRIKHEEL
UniProt Q5RKV6, whole entry, looked up: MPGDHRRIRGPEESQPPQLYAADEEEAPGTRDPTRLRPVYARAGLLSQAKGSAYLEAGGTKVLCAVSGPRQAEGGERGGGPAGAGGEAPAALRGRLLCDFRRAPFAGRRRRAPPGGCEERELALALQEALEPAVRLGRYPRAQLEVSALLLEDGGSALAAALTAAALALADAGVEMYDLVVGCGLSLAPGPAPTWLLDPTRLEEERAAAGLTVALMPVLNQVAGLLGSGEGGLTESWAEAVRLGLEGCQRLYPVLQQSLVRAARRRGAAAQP
UniProt Q9Y6I3: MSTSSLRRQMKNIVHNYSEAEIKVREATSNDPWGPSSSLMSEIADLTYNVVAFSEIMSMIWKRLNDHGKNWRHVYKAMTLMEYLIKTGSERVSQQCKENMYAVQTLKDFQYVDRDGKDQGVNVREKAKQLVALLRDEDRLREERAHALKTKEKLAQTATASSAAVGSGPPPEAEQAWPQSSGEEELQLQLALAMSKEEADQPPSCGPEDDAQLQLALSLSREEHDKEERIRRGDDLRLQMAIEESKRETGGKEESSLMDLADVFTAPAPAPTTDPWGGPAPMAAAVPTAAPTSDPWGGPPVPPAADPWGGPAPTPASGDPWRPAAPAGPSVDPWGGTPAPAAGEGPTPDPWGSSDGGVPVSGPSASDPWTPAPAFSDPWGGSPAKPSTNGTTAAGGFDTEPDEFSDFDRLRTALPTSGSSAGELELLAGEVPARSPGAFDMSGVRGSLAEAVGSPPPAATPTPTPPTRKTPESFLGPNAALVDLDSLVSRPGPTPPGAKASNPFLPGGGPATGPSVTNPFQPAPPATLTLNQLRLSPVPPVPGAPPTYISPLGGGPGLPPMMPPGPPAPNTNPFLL
UniProt P15311, whole entry, looked up: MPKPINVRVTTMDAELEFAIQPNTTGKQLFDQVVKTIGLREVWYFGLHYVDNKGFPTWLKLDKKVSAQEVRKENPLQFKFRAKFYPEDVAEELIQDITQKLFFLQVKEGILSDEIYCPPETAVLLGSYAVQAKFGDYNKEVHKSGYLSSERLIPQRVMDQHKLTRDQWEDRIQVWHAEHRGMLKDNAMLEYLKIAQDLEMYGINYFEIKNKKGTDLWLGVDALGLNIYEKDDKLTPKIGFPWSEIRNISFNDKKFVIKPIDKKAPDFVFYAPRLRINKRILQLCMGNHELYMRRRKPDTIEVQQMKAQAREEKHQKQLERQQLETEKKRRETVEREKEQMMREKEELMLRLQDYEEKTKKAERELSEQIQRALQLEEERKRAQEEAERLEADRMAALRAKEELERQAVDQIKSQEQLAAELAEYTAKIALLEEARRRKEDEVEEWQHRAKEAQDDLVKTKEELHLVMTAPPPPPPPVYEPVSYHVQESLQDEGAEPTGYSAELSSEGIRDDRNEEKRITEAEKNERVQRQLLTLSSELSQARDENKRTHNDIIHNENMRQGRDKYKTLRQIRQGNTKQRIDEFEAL

The list shows a part of the results.

Compound in this test: c1cn2cc(-c3ccc4cn[nH]c4c3)nc(Nc3ccc(N4CCOCC4)cc3)c2n1 [entospletinib]
In words: log2 fold change, soluble protein after heating vs DMSO (PISA); higher = thermal stabilisation; K562 cells, 10 uM, 30 min; active = over 0.2 and 3.5 SD of the protein, either way, in both replicates (recomputed). In outline: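 Quantification of soluble protein used TMTpro 16plex LC-MS/MS, with channel sums equalised. Samples were the supernatant after 21,000xg for 90 min of pooled aliquots from K562 cells (2×10^6 cells/mL) treated with 10 μM compound for 30 min, heated for 3 min over 48°C-58°C, and extracted in PBS with 0.5% NP-40 at 4°C. Values, from duplicates, describe thermal stability against control samples on a log2 fold-change scale.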
Consider ETF1 isoform 2 (UniProt P62495), for which the log2 fold change is inactive: 0.14.

Consider ERCC4 (UniProt Q92889), for which the log2 fold change is inactive: -0.02.

For the target FAM192A (UniProt Q9GZU8), the log2 fold change is inactive: 0.018.

As for EPS15L1 isoform 2 (UniProt Q9UBC2), the log2 fold change was inactive: -0.011.

FAM172A (UniProt Q8WUF8): the log2 fold change was inactive: -0.165.

With EXOSC6 (UniProt Q5RKV6), the log2 fold change is inactive: 0.003.

Consider EPN1 (UniProt Q9Y6I3), for which the log2 fold change was inactive: -0.003.

For EZR (UniProt P15311), the log2 fold change was inactive: -0.011.
